The text below walks through data of publication PMC6856732.

By UniProt entry, the sequences of proteins in these tests, tags left out. Residues count along the entry.
UniProt P38646, residues 47-679: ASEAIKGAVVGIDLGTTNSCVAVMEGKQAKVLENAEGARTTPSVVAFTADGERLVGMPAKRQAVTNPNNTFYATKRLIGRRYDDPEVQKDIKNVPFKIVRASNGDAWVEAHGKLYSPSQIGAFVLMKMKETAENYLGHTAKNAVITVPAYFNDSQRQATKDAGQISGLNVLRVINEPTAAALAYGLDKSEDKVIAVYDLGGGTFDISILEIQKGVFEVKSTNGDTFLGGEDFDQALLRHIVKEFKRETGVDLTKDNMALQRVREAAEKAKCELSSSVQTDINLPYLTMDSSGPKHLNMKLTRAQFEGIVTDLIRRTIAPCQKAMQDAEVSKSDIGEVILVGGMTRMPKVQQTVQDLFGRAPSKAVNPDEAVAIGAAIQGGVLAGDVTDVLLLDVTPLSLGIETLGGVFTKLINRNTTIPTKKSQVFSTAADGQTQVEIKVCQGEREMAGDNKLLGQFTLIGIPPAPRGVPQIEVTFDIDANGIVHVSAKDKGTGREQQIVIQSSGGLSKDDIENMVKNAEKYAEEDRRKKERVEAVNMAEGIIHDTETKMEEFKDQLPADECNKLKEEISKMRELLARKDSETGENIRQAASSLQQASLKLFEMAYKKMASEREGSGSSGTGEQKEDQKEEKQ

No constants are given. Whether binding was seen depends on the method and setting. In cells and extracts the contact can be indirect. Some results given as binding are weak or reduced against the parent protein; the word gives no strength.

The assay deals with T1, tetraspanin CD151 (human (endogenous in HCCLM3)) (UniProt P48509).
T1 sequence: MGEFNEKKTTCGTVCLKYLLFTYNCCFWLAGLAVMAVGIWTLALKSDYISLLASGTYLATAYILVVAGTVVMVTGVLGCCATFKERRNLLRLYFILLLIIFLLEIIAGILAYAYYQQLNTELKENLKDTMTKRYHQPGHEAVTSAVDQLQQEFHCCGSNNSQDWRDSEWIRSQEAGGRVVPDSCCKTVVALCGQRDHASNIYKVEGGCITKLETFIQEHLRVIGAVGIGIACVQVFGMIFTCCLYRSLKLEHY
The assay can be described thus: co-IP; endogenous proteins in HCCLM3 cells; rabbit anti-human Mortalin and mouse anti-human CD151 monoclonal antibodies; IgG as control.

In the case of Mortalin (from UniProt P38646 47-679), the binding entry is reported as “binds”.
